# Experimental data reported in the supplement of paper PMC8728848.
# The other results are listed elsewhere or left out.
# Assays:
# Test in all cases: glycan array binding signal (z-score within array); higher = stronger binding
# Settings in all cases: glycan notation: IUPAC condensed, linker removed
# [1] = biological target: Neu5Ac(a2-6)Gal
# Summary of the method: (§1)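 Negative Z-scores can be read as non-binding. The Z-score is calculated within each array and then averaged across arrays of one protein sequence at different concentrations or buffers and across linkers. Arrays, 3228 in all, were curated from the Consortium for Functional Glycomics database and kept only where the protein sequence was available.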
# [2] = biological target: Neu5Ac(a2-6)Gal(b1-3)GlcNAc(b1-3)[Gal(b1-4)GlcNAc(b1-6)]Gal(b1-4)Glc
# Summary of the method: as §1
# [3] = biological target: Neu5Ac(a2-6)Gal(b1-4)Glc
# Summary of the method: as §1
# [4] = biological target: Neu5Ac(a2-6)Gal(b1-4)GlcNAc
# Summary of the method: as §1
# [5] = biological target: Neu5Ac(a2-6)Gal(b1-4)GlcNAc(b1-2)Man
# Summary of the method: as §1
# [6] = biological target: Neu5Ac(a2-6)Gal(b1-4)GlcNAc(b1-2)Man(a1-3)Man(b1-4)GlcNAc(b1-4)GlcNAc
# Summary of the method: as §1
# [7] = biological target: Neu5Ac(a2-6)Gal(b1-4)GlcNAc(b1-2)Man(a1-3)[Gal(b1-4)GlcNAc(b1-2)Man(a1-6)]Man(b1-4)GlcNAc(b1-4)GlcNAc
# Summary of the method: as §1
# [8] = biological target: Neu5Ac(a2-6)Gal(b1-4)GlcNAc(b1-2)Man(a1-3)[GlcNAc(b1-2)Man(a1-6)]Man(b1-4)GlcNAc(b1-4)GlcNAc
# Summary of the method: as §1
# [9] = biological target: Neu5Ac(a2-6)Gal(b1-4)GlcNAc(b1-2)Man(a1-3)[GlcNAc(b1-4)][Neu5Ac(a2-6)Gal(b1-4)GlcNAc(b1-2)Man(a1-6)]Man(b1-4)GlcNAc(b1-4)GlcNAc
# Summary of the method: as §1
# [10] = biological target: Neu5Ac(a2-6)Gal(b1-4)GlcNAc(b1-2)Man(a1-3)[Man(a1-6)]Man(b1-4)GlcNAc(b1-4)GlcNAc
# Summary of the method: as §1
# [11] = biological target: Neu5Ac(a2-6)Gal(b1-4)GlcNAc(b1-2)Man(a1-3)[Neu5Ac(a2-3)Gal(b1-4)GlcNAc(b1-2)Man(a1-6)]Man(b1-4)GlcNAc(b1-4)GlcNAc
# Summary of the method: as §1
# [12] = biological target: Neu5Ac(a2-6)Gal(b1-4)GlcNAc(b1-2)Man(a1-3)[Neu5Ac(a2-6)Gal(b1-4)GlcNAc(b1-2)Man(a1-6)]Man(b1-4)GlcNAc(b1-4)GlcNAc
# Summary of the method: as §1
# [13] = biological target: Neu5Ac(a2-6)Gal(b1-4)GlcNAc(b1-2)Man(a1-3)[Neu5Ac(a2-6)Gal(b1-4)GlcNAc(b1-2)Man(a1-6)]Man(b1-4)GlcNAc(b1-4)[Fuc(a1-6)]GlcNAc
# Summary of the method: as §1
# [14] = biological target: Neu5Ac(a2-6)Gal(b1-4)GlcNAc(b1-2)Man(a1-6)Man(b1-4)GlcNAc(b1-4)GlcNAc
# Summary of the method: as §1
# [15] = biological target: Neu5Ac(a2-6)Gal(b1-4)GlcNAc(b1-2)Man(a1-6)[Gal(b1-4)GlcNAc(b1-2)Man(a1-3)]Man(b1-4)GlcNAc(b1-4)GlcNAc
# Summary of the method: as §1
# [16] = biological target: Neu5Ac(a2-6)Gal(b1-4)GlcNAc(b1-2)Man(a1-6)[GlcNAc(b1-2)Man(a1-3)]Man(b1-4)GlcNAc(b1-4)GlcNAc
# Summary of the method: as §1
# [17] = biological target: Neu5Ac(a2-6)Gal(b1-4)GlcNAc(b1-2)Man(a1-6)[Man(a1-3)]Man(b1-4)GlcNAc(b1-4)GlcNAc
# Summary of the method: as §1
# [18] = biological target: Neu5Ac(a2-6)Gal(b1-4)GlcNAc(b1-2)[Neu5Ac(a2-6)Gal(b1-4)GlcNAc(b1-4)]Man(a1-3)[GlcNAc(b1-4)][Neu5Ac(a2-6)Gal(b1-4)GlcNAc(b1-2)[Neu5Ac(a2-6)Gal(b1-4)GlcNAc(b1-6)]Man(a1-6)]Man(b1-4)GlcNAc(b1-4)GlcNAc
# Summary of the method: as §1
# [19] = biological target: Neu5Ac(a2-6)Gal(b1-4)GlcNAc(b1-2)[Neu5Ac(a2-6)Gal(b1-4)GlcNAc(b1-4)]Man(a1-3)[GlcNAc(b1-4)][Neu5Ac(a2-6)Gal(b1-4)GlcNAc(b1-4)Man(a1-6)]Man(b1-4)GlcNAc(b1-4)GlcNAc
# Summary of the method: as §1
# [20] = biological target: Neu5Ac(a2-6)Gal(b1-4)GlcNAc(b1-2)[Neu5Ac(a2-6)Gal(b1-4)GlcNAc(b1-6)]Man(a1-6)[Neu5Ac(a2-6)Gal(b1-4)GlcNAc(b1-2)Man(a1-3)][GlcNAc(b1-4)]Man(b1-4)GlcNAc(b1-4)GlcNAc
# Summary of the method: as §1
# [21] = biological target: Neu5Ac(a2-6)Gal(b1-4)GlcNAc(b1-3)Gal(b1-3)GlcNAc
# Summary of the method: as §1
# [22] = biological target: Neu5Ac(a2-6)Gal(b1-4)GlcNAc(b1-3)Gal(b1-4)GlcNAc
# Summary of the method: as §1
# [23] = biological target: Neu5Ac(a2-6)Gal(b1-4)GlcNAc(b1-3)Gal(b1-4)GlcNAc(b1-2)Man(a1-3)[Neu5Ac(a2-6)Gal(b1-4)GlcNAc(b1-3)Gal(b1-4)GlcNAc(b1-2)Man(a1-6)]GalNAc
# Summary of the method: as §1
# [24] = biological target: Neu5Ac(a2-6)Gal(b1-4)GlcNAc(b1-3)Gal(b1-4)GlcNAc(b1-3)Gal(b1-4)GlcNAc
# Summary of the method: as §1
# [25] = biological target: Neu5Ac(a2-6)Gal(b1-4)GlcNAc(b1-3)Gal(b1-4)GlcNAc(b1-3)Gal(b1-4)GlcNAc(b1-2)Man(a1-3)[Neu5Ac(a2-6)Gal(b1-4)GlcNAc(b1-3)Gal(b1-4)GlcNAc(b1-3)Gal(b1-4)GlcNAc(b1-2)Man(a1-6)]GalNAc
# Summary of the method: as §1
# [26] = biological target: Neu5Ac(a2-6)Gal(b1-4)GlcNAc(b1-3)Gal(b1-4)GlcNAc(b1-3)GalNAc
# Summary of the method: as §1
# [27] = biological target: Neu5Ac(a2-6)Gal(b1-4)GlcNAc(b1-3)Gal(b1-4)GlcNAc(b1-3)[Neu5Ac(a2-6)Gal(b1-4)GlcNAc(b1-3)Gal(b1-4)GlcNAc(b1-6)]GalNAc
# Summary of the method: as §1
# [28] = biological target: Neu5Ac(a2-6)Gal(b1-4)GlcNAc(b1-3)Gal(b1-4)GlcNAc(b1-6)[Gal(b1-3)]GalNAc
# Summary of the method: as §1
# [29] = biological target: Neu5Ac(a2-6)Gal(b1-4)GlcNAc(b1-3)Gal(b1-4)[Fuc(a1-3)]GlcNAc(b1-3)Gal(b1-4)[Fuc(a1-3)]GlcNAc
# Summary of the method: as §1
# [30] = biological target: Neu5Ac(a2-6)Gal(b1-4)GlcNAc(b1-3)GalNAc
# Summary of the method: as §1
# [31] = biological target: Neu5Ac(a2-6)Gal(b1-4)GlcNAc(b1-3)[Neu5Ac(a2-6)Gal(b1-4)GlcNAc(b1-6)]GalNAc
# Summary of the method: as §1
# [32] = biological target: Neu5Ac(a2-6)Gal(b1-4)GlcNAc(b1-6)GalNAc
# Summary of the method: as §1
# [33] = biological target: Neu5Ac(a2-6)Gal(b1-4)GlcNAc(b1-6)[Gal(b1-3)GlcNAc(b1-3)]Gal(b1-4)Glc
# Summary of the method: as §1
# [34] = biological target: Neu5Ac(a2-6)Gal(b1-4)GlcNAc(b1-6)[Gal(b1-3)]GalNAc
# Summary of the method: as §1
# [35] = biological target: Neu5Ac(a2-6)Gal(b1-4)GlcNAc6S
# Summary of the method: as §1
# [36] = biological target: Neu5Ac(a2-6)GalNAc
# Summary of the method: as §1
# [37] = biological target: Neu5Ac(a2-6)GalNAc(b1-4)GlcNAc
# Summary of the method: as §1
# [38] = biological target: Neu5Ac(a2-6)GalNAc(b1-4)GlcNAc6S
# Summary of the method: as §1
binder,measurement,setting,value
SP15308B-bot-339-22-339 (Bacteroides ovatus) (protein) NEWEDEQYEQYVSFKAPIASGSDGVTTIYVRYKDNGKVTYQLPIIVSGSTVNSQDRDIHIAVDKDTLKTLNIERFSLYRPELWYTEMEEDKYEFPETVHIPAGSCVELLNIDFNLQDIDMLEKWVLPLTIVDDGSYAYQSHPRKNYAKALLKVVPFNNYSGSYTASSMKVYTYINGKPDTNARTTDKRTGYVVDNNSIFFYAGLINEDMDKDMRKKYKINVHFKEDGTLDMKQDDPSNEMEFELIGTPTYSSTSVMDATRPYLERRYVQIMFEYDFQDFTYGGSGTEVIPIKYRVAGSMTLLRNINTQIPDEDQQIEW,glycan array binding signal (z-score),[1],-0.343
same,glycan array binding signal (z-score),[2],-0.501
same,glycan array binding signal (z-score),[3],-0.229
same,glycan array binding signal (z-score),[4],0.016
same,glycan array binding signal (z-score),[5],-0.497
same,glycan array binding signal (z-score),[6],0.163
same,glycan array binding signal (z-score),[7],0.001
same,glycan array binding signal (z-score),[8],0.186
same,glycan array binding signal (z-score),[9],-0.559
same,glycan array binding signal (z-score),[10],0.075
same,glycan array binding signal (z-score),[11],-0.494
same,glycan array binding signal (z-score),[12],-0.467
same,glycan array binding signal (z-score),[13],1.73
same,glycan array binding signal (z-score),[14],-0.086
same,glycan array binding signal (z-score),[15],-0.327
same,glycan array binding signal (z-score),[16],-0.527
same,glycan array binding signal (z-score),[17],-0.487
same,glycan array binding signal (z-score),[18],0.873
same,glycan array binding signal (z-score),[19],-0.243
same,glycan array binding signal (z-score),[20],-0.729
same,glycan array binding signal (z-score),[21],-0.632
same,glycan array binding signal (z-score),[22],-0.288
same,glycan array binding signal (z-score),[23],-0.499
same,glycan array binding signal (z-score),[24],-0.621
same,glycan array binding signal (z-score),[25],0.664
same,glycan array binding signal (z-score),[26],-0.263
same,glycan array binding signal (z-score),[27],-0.302
same,glycan array binding signal (z-score),[28],-0.651
same,glycan array binding signal (z-score),[29],-0.091
same,glycan array binding signal (z-score),[30],-0.409
same,glycan array binding signal (z-score),[31],-0.486
same,glycan array binding signal (z-score),[32],0.549
same,glycan array binding signal (z-score),[33],-0.278
same,glycan array binding signal (z-score),[34],-0.51
same,glycan array binding signal (z-score),[35],0.042
same,glycan array binding signal (z-score),[36],0.169
same,glycan array binding signal (z-score),[37],-0.157
same,glycan array binding signal (z-score),[38],-0.231

# Nothing new here: entries from further up.
binder,measurement,setting,value
SP15308B-bot-339-22-339 (Bacteroides ovatus) (protein) NEWEDEQYEQYVSFKAPIASGSDGVTTIYVRYKDNGKVTYQLPIIVSGSTVNSQDRDIHIAVDKDTLKTLNIERFSLYRPELWYTEMEEDKYEFPETVHIPAGSCVELLNIDFNLQDIDMLEKWVLPLTIVDDGSYAYQSHPRKNYAKALLKVVPFNNYSGSYTASSMKVYTYINGKPDTNARTTDKRTGYVVDNNSIFFYAGLINEDMDKDMRKKYKINVHFKEDGTLDMKQDDPSNEMEFELIGTPTYSSTSVMDATRPYLERRYVQIMFEYDFQDFTYGGSGTEVIPIKYRVAGSMTLLRNINTQIPDEDQQIEW,glycan array binding signal (z-score),[22],-0.288
same,glycan array binding signal (z-score),[23],-0.499
same,glycan array binding signal (z-score),[24],-0.621
same,glycan array binding signal (z-score),[25],0.664
same,glycan array binding signal (z-score),[26],-0.263
same,glycan array binding signal (z-score),[27],-0.302
same,glycan array binding signal (z-score),[28],-0.651
same,glycan array binding signal (z-score),[29],-0.091
same,glycan array binding signal (z-score),[30],-0.409
same,glycan array binding signal (z-score),[31],-0.486
same,glycan array binding signal (z-score),[32],0.549
same,glycan array binding signal (z-score),[33],-0.278
